Values from PubChem BioAssay AID686937 (Drosophila RNAi Screening Center, 2013)
Test: 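Genes in the fly needed for secretion of protein constitutively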 (primary screen). System: Drosophila S2 cells expressing secreted horseradish peroxidase. Knock-down reagent: long dsRNA against Drosophila genes. Time to read-out: about 5.5 days (5 days dsRNA, then 12 h reporter induction). Challenge: reporter expression induced after 5 days of dsRNA, read 12 h later; inducer not stated. Detection: 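After 5 days of dsRNA and 12 h of reporter induction, medium peroxidase read by chemiluminescence and scored as per-plate z-score; higher values mean more reporter released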. Direction: z-score: higher = more reporter secreted into medium.
The deposit covers about 23,000 reagents; below is a random part of those with a known target gene and a result. 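Reduced-secretion tags in replicate 1 do not always agree with the z-scores; no criterion for assigning the tags was given.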 A plus sign joins genes that one reagent is predicted to hit. Not given: the amount of reagent.

| gene | dsRNA | z-score, replicate 1 | z-score, replicate 2 | z-score, replicate 3 | z-score, replicate 4 | phenotype, replicate 1 |
| --- | --- | --- | --- | --- | --- | --- |
| CG11095 | DRSC19375 | 0.18 | 0.45 | – | – | – |
| Ipk2 (Inositol phosphate kinase 2) | DRSC00357 | 0.41 | 0.47 | – | – | – |
| CG8726 | DRSC07250 | 0.25 | 0.28 | – | – | – |
| abd-A (abdominal A) | DRSC13179 | 0.41 | 0.6 | – | – | – |
| abd-A (abdominal A) | DRSC16897 | -8.54 | -4.77 | – | – | reduced secretion |
| l(2)k05819 (lethal (2) k05819) | DRSC00826 | 0.38 | 0.39 | – | – | – |
| Lime (Linking immunity and metabolism) | DRSC06752 | 0.4 | 0.46 | – | – | – |
| S (Star) | DRSC00785 | -0.18 | -0.48 | – | – | – |
| CG1575 | DRSC18069 | 0.52 | 0.14 | – | – | – |
| Porin2 | DRSC02584 | 0.48 | -0.75 | – | – | – |
| Cyt-b5 (Cytochrome b5) | DRSC07392 | 0.36 | 0.24 | – | – | – |
| s-cup (stanley-cup) | DRSC06277 | 0.44 | 0.44 | – | – | – |
| s-cup (stanley-cup) | DRSC06278 | 0.21 | 0.18 | – | – | – |
| His-Psi:CR31616 + His-Psi:CR31615 | DRSC03760 | -3.25 | -2.03 | – | – | reduced secretion |
| Bruce (BIR repeat containing ubiquitin-conjugating enzyme) | DRSC16015 | 0.57 | 0.66 | – | – | – |
| CG14717 | DRSC14940 | 0.17 | 0.35 | – | – | – |
| Akap200 (A kinase anchor protein 200) | DRSC01864 | -0.01 | 0.17 | – | – | – |
| CG14628 | DRSC18626 | 0.18 | 0.33 | – | – | – |
| CG11504 | DRSC14318 | 0.36 | 0.37 | – | – | – |
| CG15365 | DRSC18038 | -4.51 | -4.47 | – | – | reduced secretion |
| CPT2 (Carnitine palmitoyltransferase 2) | DRSC08553 | -0.26 | 0.21 | – | – | – |
| Lipt1 + CG42837 | DRSC07183 | 0.46 | 0.59 | – | – | – |
| CG41520 | DRSC21102 | 0.42 | 0.35 | – | – | – |
| CG41520 | DRSC21103 | 0.02 | 0.25 | – | – | – |
| yata | DRSC15408 | 0.27 | 0.27 | – | – | – |
| Hr78 (Hormone-receptor-like in 78) | DRSC11866 | 0.09 | 0.31 | – | – | – |
| exu (exuperantia) | DRSC07615 | 0.55 | 0.18 | – | – | – |
| Alg14 (ALG14, UDP-N-acetylglucosaminyltransferase subunit) | DRSC19983 | 0.47 | 0.48 | – | – | – |
| Ogg1 (8-oxoguanine DNA glycosylase) | DRSC17738 | 0.16 | 0.35 | – | – | – |
| mTerf5 (mitochondrial transcription termination factor 5) | DRSC16209 | 0.28 | 0.28 | – | – | – |
| CG33169 | DRSC11853 | -0.5 | -0.98 | – | – | – |
| CR43105 (pseudo) | DRSC05547 | -1.69 | -0.77 | – | – | reduced secretion |
| sp3 (spermathreecae) | DRSC16354 | 0.34 | 0.32 | – | – | – |
| kni (knirps) | DRSC11891 | 0.4 | 0.57 | – | – | – |
| CG1847 | DRSC19810 | 0.29 | 0.4 | – | – | – |
| Zmynd8 (Zinc finger MYND-type containing 8) | DRSC15310 | -0.04 | 0.17 | – | – | – |
| CG31407 | DRSC12761 | 0.42 | 0.35 | – | – | – |
| AhcyL2 (Adenosylhomocysteinase like 2) | DRSC14107 | -0.09 | -0.03 | – | – | – |
| CG15580 | DRSC12266 | 0.25 | 0.24 | – | – | – |
| Cyp6a19 (Cytochrome P450 6a19) | DRSC07379 | 0.23 | 0.34 | – | – | – |
| CG2021 | DRSC08546 | -0.25 | -0.1 | – | – | – |
| CG12541 | DRSC17483 | 0.06 | 0.57 | – | – | – |
| CG12541 | DRSC17839 | 0.56 | 0.55 | – | – | – |
| CG13928 | DRSC08397 | 0.53 | 0.41 | – | – | – |
| RpL10 (Ribosomal protein L10) | DRSC11947 | -3.8 | -2.5 | – | – | reduced secretion |
| CG31370 | DRSC21453 | 1.17 | 1.38 | – | – | – |
| CG7963 | DRSC16355 | 0.09 | 0.78 | – | – | – |
| GstT3 (Glutathione S transferase T3) | DRSC20541 | -0.48 | -0.25 | – | – | – |
| Bhmt (Betaine-homocysteine S-methyltransferase) | DRSC02079 | 0.46 | 0.38 | – | – | – |
| CG43103 | DRSC05643 | 0.44 | 0.48 | – | – | – |
| CG17192 | DRSC15186 | 0.23 | -0.07 | – | – | – |
| CG2841 | DRSC17699 | 0.45 | 0.52 | 0.58 | 0.51 | – |
| CG2841 | DRSC18824 | 0.28 | 0.33 | – | – | – |
| CG2841 | DRSC22106 | -0.35 | 0.49 | – | – | – |
| CG14185 | DRSC10184 | 0.14 | 0.34 | – | – | – |
| CG10600 | DRSC02074 | 0.26 | 0.28 | – | – | – |
| CG7512 | DRSC10863 | 0.32 | 0.14 | – | – | – |
| Ugt50B3 (UDP-glycosyltransferase family 50 member B3) | DRSC04778 | 0.47 | – | – | – | – |
| Ugt50B3 (UDP-glycosyltransferase family 50 member B3) | DRSC04779 | 0.16 | – | – | – | – |
| Ugt50B3 (UDP-glycosyltransferase family 50 member B3) | DRSC21419 | -1.08 | -0.91 | – | – | reduced secretion |
| CG31606 | DRSC01012 | 0.23 | 0.11 | – | – | – |
| CG15579 | DRSC18067 | 0.19 | 0.12 | – | – | – |
| Ir7e (Ionotropic receptor 7e) | DRSC18011 | -1.04 | 0.13 | – | – | – |
| DJ-1alpha | DRSC07005 | 0.22 | 0.24 | – | – | – |
| CG9593 | DRSC16508 | -0.26 | 0.16 | – | – | – |
| CG14326 | DRSC14805 | -0.19 | -0.03 | – | – | – |
| ND-24 (NADH dehydrogenase (ubiquinone) 24 kDa subunit) | DRSC19960 | 0.08 | 0.07 | – | – | – |
| CG4576 | DRSC15604 | -0.34 | 0.29 | – | – | – |
| Rhp (Rhophilin) | DRSC20279 | 0.23 | 0.16 | – | – | – |
| CG10208 | DRSC14211 | 0.59 | 0.52 | – | – | – |
| Nplp3 (Neuropeptide-like precursor 3) | DRSC09944 | -0.25 | 0.05 | – | – | – |
| CG14817 | DRSC18547 | 0.18 | 0.1 | – | – | – |
| asRNA:CR43463 + Pgant35A | DRSC03557 | 0.19 | 0.47 | 0.48 | 0.11 | – |
| Tasp1 (Taspase 1) | DRSC10495 | 0.34 | 0.3 | – | – | – |
| Fip1 (Factor interacting with poly(A) polymerase 1) | DRSC12147 | -0.22 | -0.29 | – | – | – |
| CG42583 | DRSC22937 | -0.11 | 0.1 | – | – | – |
| CG6700 | DRSC02980 | -0.93 | -0.43 | – | – | – |
| eIF4B (eukaryotic translation initiation factor 4B) | DRSC20983 | 0.15 | 0.03 | – | – | – |
| CR18275 + CG13373 | DRSC17900 | 0.4 | 0.19 | – | – | – |
| MESK2 + CG10494 | DRSC04259 | 0.2 | 0.01 | – | – | – |
| Pif1A (PFTAIRE-interacting factor 1A) | DRSC12708 | 0.47 | 0.55 | – | – | – |
| Pif1A (PFTAIRE-interacting factor 1A) | DRSC14383 | 0.36 | 0.42 | – | – | – |

9 of these entries, set out differently.
{"gene":"CG11095","dsRNA":"DRSC19375","z-score, replicate 1":0.18,"z-score, replicate 2":0.45}
{"gene":"Ipk2 (Inositol phosphate kinase 2)","dsRNA":"DRSC00357","z-score, replicate 1":0.41,"z-score, replicate 2":0.47}
{"gene":"CG8726","dsRNA":"DRSC07250","z-score, replicate 1":0.25,"z-score, replicate 2":0.28}
{"gene":"abd-A (abdominal A)","dsRNA":"DRSC13179","z-score, replicate 1":0.41,"z-score, replicate 2":0.6}
{"gene":"abd-A (abdominal A)","dsRNA":"DRSC16897","z-score, replicate 1":-8.54,"z-score, replicate 2":-4.77,"phenotype, replicate 1":"reduced secretion"}
{"gene":"l(2)k05819 (lethal (2) k05819)","dsRNA":"DRSC00826","z-score, replicate 1":0.38,"z-score, replicate 2":0.39}
{"gene":"Lime (Linking immunity and metabolism)","dsRNA":"DRSC06752","z-score, replicate 1":0.4,"z-score, replicate 2":0.46}
{"gene":"S (Star)","dsRNA":"DRSC00785","z-score, replicate 1":-0.18,"z-score, replicate 2":-0.48}
{"gene":"CG1575","dsRNA":"DRSC18069","z-score, replicate 1":0.52,"z-score, replicate 2":0.14}
